The results in this text go back to PubChem BioAssay AID2685 (National Center for Advancing Translational Sciences (NCATS), 2010).

The assay in a line: qHTS Assay for Lipid Storage Modulators in Drosophila S3 Cells.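 On cell number change: cells counted by Cell Tracker Red CMTPX staining in the red channel.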 Particulars: BODIPY lipid droplet fluorescence, 18-24 h; for cell number change: measured here: cell count max response, cells fed with added oleic acid. An outline of the steps: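 Laser-scanning cytometry quantifies lipid droplet accumulation (500–530 nm total intensity; droplet/cell object ratio) in oleic acid-fed (400 uM added) Drosophila S3 cells treated with a concentration series. 20 uM Triacsin C defined 100% inhibition.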
On the technique in general: Quantitative high-throughput screening tests each substance at several concentrations.

The mark [1] stands for this setting: measured here: lipid fluorescence (Fed channel) AC50, cells fed with added oleic acid.
The mark [2] stands for this setting: measured here: cell number channel AC50, cells fed with added oleic acid.

Molecules are shown by their SMILES. The list shows a part of the results. These are further read-outs of the screen, such as a control signal, another cell line or another target. No call is given for them. Compounds called inactive in the main read-out are mostly missing here. Words in brackets tell the shape of the fitted curve; partial curves, single points and poor fits give uncertain potencies.

The term AC50 denotes the midpoint of the concentration-response curve, whichever way the signal moves. Read a high AC50 as activity only at high concentration. As for `O=C(COc1ccc2c3c(c(=O)oc2c1)CCC3)NCc1ccncc1`, the cell number change is 17.1%. Moreover, under setting [1], the AC50 is 29.1 µM [rising, single point].
As to `COc1ccc(/C(O)=C2\C(=O)C(=O)N(CCN(C)C)C2c2cccc(OC)c2OC)cc1` (stereo unspecified), the cell number change was 30.5%. Besides, under setting [2], the half-maximal activity concentration (AC50) was 0.651 µM [rising, full curve, poor fit]. For the same molecule, under setting [1], the AC50 was 0.411 µM [falling, single point].
On to `Cc1ccc(C(=O)NCCN(C)C)cc1C`, for which, under setting [1], the AC50 is 23.1 µM [falling, single point].
Take `O=C1NCCCN1Cc1ccc(Cl)cc1`: the cell number change is -33.3%. Further, the AC50 under setting [2] is 29.1 µM [falling, single point].
Take `O=C(COc1ccccc1)Nc1cc(NC(=O)COc2ccccc2)cc(C(=O)O)c1`: the cell number change amounted to 14.6%.
With `O=C(N/N=C/c1c(O)n(-c2ccc(Cl)cn2)c(=O)c2ccccc12)c1ccncc1`, the cell number change is -19.6%. The AC50 under setting [1] is 0.651 µM [falling, partial curve, poor fit].
Turning to `O=C(O)CCN=CC1=C(O)CC(c2ccccc2)CC1=O` (stereo unspecified), the AC50 under setting [1] is 1.16 µM [falling, full curve].
For `O=C(Nc1ccc(Cl)cc1F)c1ccc(COc2c(F)c(F)c(F)c(F)c2F)o1`, the cell number change was -10.6%. Further, under setting [1], the AC50 was 0.000164 µM [falling, full curve, poor fit].
`Cc1cc(=O)n2c3c(cccc13)CCC2`: the cell number change came out at 8.68%. Also, the AC50 under setting [1] was 9.2 µM [rising, partial curve, poor fit].
With `COc1cc(/C=N/N=C2/NC(=O)C(c3ccccc3)S2)ccc1O` (stereo unspecified), the AC50 under setting [2] is 2.31 µM [falling, single point].
As to `O=[N+]([O-])c1ccc(S(=O)(=O)Nc2cccc(-c3ccc(N4CCCC4)nn3)c2)cc1`, the cell number change came to 43.9%. The AC50 under setting [2] was 25.9 µM [rising, single point].
As to `Cc1ccn2cc(CNS(=O)(=O)c3ccc4ccccc4c3)nc2c1`, the cell number change is -5.78%.
On the same count and under the same terms, as for `CC(=O)c1cccc(NC(=O)Cc2cccs2)c1`, the figure is 4.66%.
Turning to `O=C(/C=C/Nc1ccc(Cc2ccc(N/C=C/C(=O)C(F)(F)F)cc2)cc1)C(F)(F)F`, the cell number change is -50.8%. Also, the AC50 under setting [2] was 7.31 µM [falling, partial curve]. Under setting [1], the AC50 was 8.2 µM [falling, partial curve].
For `O=C(Nc1nc(-c2ccncc2)cs1)c1ccc(S(=O)(=O)N2CCOCC2)cc1`, the cell number change came to 11.4%.
In the case of `Cc1ccc(C(=O)N2CCCC(C(=O)c3ccc(Cl)cc3C)C2)cn1` (stereo unspecified), the cell number change stood at 14.9%. Further, the AC50 under setting [1] was 0.411 µM [falling, partial curve, poor fit].
As for `Cc1nc2ccc(NS(=O)(=O)c3ccc(F)c(F)c3)cc2s1`, the cell number change is -22.3%.
On to `COc1nc(OCCNC(=O)Nc2ccccc2)nc(N(C)C)n1`, for which, under setting [1], the concentration at half-maximal activity (AC50) is 4.61 µM [falling, full curve, poor fit].
`O=c1oc2ccccc2n1Cc1cccc(Cl)c1`: the cell number change was -50.6%. Besides, the AC50 under setting [1] was 29.1 µM [falling, single point].
As to `CC1=NN(C(=O)CSCc2ccccc2)C(O)(c2ccc(F)cc2)C1` (stereo unspecified), the cell number change is -1.85%.
For `Cc1ccc(C(=O)O)cc1NC(=S)NCCc1ccccc1`, under setting [2], the half-maximal activity concentration (AC50) was 1.46 µM [rising, full curve, poor fit].
Turning to `Cc1cc(C)c(NC(=O)C2CCCN2CCC(C)C)c(C)c1` (stereo unspecified), the cell number change is -28.1%. The AC50 under setting [1] is 32.6 µM [falling, single point].
Turning to `Cc1ccc(C2=N/C(=C\N3CCCCC3)C(=O)O2)cc1`, the cell number change is 8.66%. The AC50 under setting [1] is 6.51 µM [rising, full curve, poor fit].
Take `O=C(CCN1CCOCC1)c1ccc(Br)cc1`: the cell number change was -42.1%. Also, the AC50 under setting [2] is 18.4 µM [falling, single point].
Turning to `O=C(Cc1ccc(Cl)c(Cl)c1)Nc1ccc(SC(F)F)cc1`, the cell number change was -81.4%. For the same molecule, the AC50 under setting [2] is 32.6 µM [falling, partial curve]. Further, the AC50 under setting [1] was 25.9 µM [falling, partial curve, poor fit].
`NC(=O)c1ccccc1OCc1nc2ccccc2s1`: the cell number change is -5.13%. In addition, under setting [1], the AC50 was 0.103 µM [rising, partial curve, poor fit].
As to `CCC(c1nnnn1C(C)(C)C)N(Cc1ccco1)Cc1cc2cccc(C)c2[nH]c1=O` (stereo unspecified), the cell number change is 34.3%. Under setting [2], the AC50 was 0.82 µM [rising, full curve, poor fit]. Further, under setting [1], the AC50 was 1.84 µM [rising, partial curve].
As to `O=S(=O)(c1ccc(SCCO)nc1)N1CCOCC1`, the cell number change was -47.2%. Moreover, the AC50 under setting [2] is 58 µM [falling, partial curve, poor fit]. In addition, the AC50 under setting [1] is 3.66 µM [falling, full curve].
For `CN(CC(=O)Nc1sc2c(c1C#N)CCCCC2)Cc1nc2ccccc2c(=O)[nH]1`, the cell number change is 17.9%.
As for `CCCCCN(C(=O)CCC(=O)OCC(=O)NC1CCC(C)CC1)c1c(N)n(CCCC)c(=O)[nH]c1=O` (stereo unspecified), the cell number change was found to be 1.02%. Further, under setting [2], the AC50 was 6.51 µM [falling, single point]. For the same molecule, the AC50 under setting [1] was 6.51 µM [falling, single point].
Turning to `CN(C(=O)CSc1nnc(-c2ccccc2F)o1)c1ccccc1`, the cell number change was 94.5%.
Take `Cc1ccc(C(=O)OCC(=O)c2ccc[nH]2)s1`: the AC50 is 0.731 µM [falling, single point] under setting [2] and 0.651 µM [falling, partial curve, poor fit] under setting [1].
With `Cc1ccc(OC(=O)c2cc(=O)c3ccccc3o2)cc1`, the cell number change was -21.5%.
For the molecule `CCN(CCCNC(=O)c1ccc2c(c1)NC(=O)CN2C)c1cccc(C)c1`, the cell number change was found to be 20%. Also, the AC50 under setting [1] is 29.1 µM [rising, single point].
With `Cc1cc(O)c(-c2cc(C(=O)NCCc3ccc(S(N)(=O)=O)cc3)[nH]n2)cc1C`, the cell number change worked out at 41.2%. Further, the AC50 under setting [2] is 0.517 µM [rising, full curve, poor fit]. Further, under setting [1], the AC50 was 3.66 µM [rising, partial curve].
In the case of `O=C(N/N=C/c1ccc(O)cc1O)NC12CC3CC(CC(C3)C1)C2`, the cell number change was -20.8%. Further, the AC50 under setting [1] was 29.1 µM [rising, single point].
Take `O=C(Nc1cccnc1)c1cc(-c2cccnc2)nc2ccc(Br)cc12`: the cell number change is -6.18%. Besides, the AC50 under setting [1] is 0.13 µM [falling, full curve, poor fit].
For `CCOC(=O)CSc1nc2c(sc(=S)n2-c2ccccc2)c(=O)[nH]1`, the AC50 under setting [2] was 3.26 µM [rising, single point].
With `Cc1ccc2c(c1)N(CC(=O)NCCc1ccccc1)C(=O)c1cccnc1O2`, the cell number change is 13.5%. In addition, under setting [1], the AC50 is 0.92 µM [falling, partial curve, poor fit].
With `Cc1ccc2c(N)c(C)ccc2c1`, the cell number change was determined as 20.6%.
For `O=[N+]([O-])c1ccc(/C=N/NC2=NS(=O)(=O)c3ccccc32)cc1`, the cell number change amounted to 22.2%.
On the same count and under the same terms, as for `O=C(O)c1ccccc1C(=O)NCc1ccc(F)cc1`, the figure is 14.2%.
In the case of `O=C(Cc1csc(-c2ccccc2)n1)Nc1ccc(C(F)(F)F)cc1`, under setting [1], the AC50 was 20.6 µM [falling, single point].
`COc1cc2c(cc1NC(=O)CSc1nnc(Cc3cccs3)n1Cc1ccco1)oc1ccccc12`: the cell number change turned out to be 68.4%. For the same molecule, the AC50 under setting [2] was 9.2 µM [rising, partial curve]. For the same molecule, under setting [1], the AC50 is 18.4 µM [rising, partial curve].
Turning to `CC1(C)C[C@@H]2C[C@@](C)(CN2C(=O)c2ccccc2)C1`, the cell number change was -18.8%. In addition, the AC50 under setting [1] was 3.66 µM [falling, full curve].
With `CCn1c(C2CCN(S(=O)(=O)c3ccc(OC)cc3)CC2)n[nH]c1=S`, the cell number change was -2.77%. Moreover, under setting [1], the AC50 was 0.116 µM [falling, full curve, poor fit].
For the molecule `CCc1cc2c(=O)n(Cc3ccco3)c(SCc3c(C)noc3C)nc2s1`, the AC50 under setting [1] was 3.26 µM [rising, partial curve].
For `CCCCc1ccc(NC(=O)CSc2nc3ncccc3[nH]2)cc1`, the cell number change stood at 14%. The AC50 under setting [1] was 20.6 µM [rising, single point].
As for `CCCS(=O)(=O)N1CCCC(C(=O)NCCN(C)Cc2ccccc2)C1` (stereo unspecified), the cell number change was -17%. Also, the AC50 under setting [1] is 0.184 µM [falling, full curve, poor fit].
With `CCOC(=O)C1=NN(C(C)=O)C2(CC(=O)N(c3ccc(C)c(C)c3)C2=O)C1` (stereo unspecified), the cell number change worked out at 6.51%. Also, the AC50 under setting [1] was 20.6 µM [falling, single point].
As for `COc1ccc(-n2ccnc2SCC(=O)NC2CCCC2)cc1`, the cell number change was found to be 3.35%.
For `COc1ccc(CNC(=O)C(=O)NCC2OCCN2S(=O)(=O)c2ccc(F)cc2)cc1` (stereo unspecified), the cell number change was determined as 19.5%. The AC50 under setting [1] was 0.58 µM [falling, single point].
Regarding `COc1cc(F)c(C2=CC(=O)C[C@H](c3ccc(Cl)cc3)C2)cc1F`, the cell number change came to 3.5%. The AC50 under setting [1] was 0.58 µM [falling, single point].
Turning to `CCOC(=O)N1CCN(C(=O)CSCC(=O)Nc2nc(-c3ccc(-c4ccccc4)cc3)cs2)CC1`, the cell number change is -55.5%. In addition, the AC50 under setting [2] was 29.1 µM [falling, single point].
For `CCOC(=O)C1CCCN(C(=S)NC(=O)/C=C/c2ccc(F)cc2)C1` (stereo unspecified), the cell number change came to 23.7%. Besides, under setting [1], the AC50 is 23.1 µM [rising, partial curve].
For the molecule `CC(CCCC(C)(C)O)NC(=O)c1ccc2oc(CCc3ccccc3)nc2c1` (stereo unspecified), the cell number change was 6.08%. Under setting [1], the concentration at half-maximal activity (AC50) is 6.51 µM [rising, single point].
For `CCc1ccccc1NC(=O)CN1CCN(C(=O)CN2C(=O)NC3(CCCC3)C2=O)CC1`, the cell number change was -33.3%. For the same molecule, the AC50 under setting [2] is 0.0116 µM [falling, full curve, poor fit]. The AC50 under setting [1] was 20.6 µM [falling, single point].
For `COCCCNc1nc(N)c([N+](=O)[O-])c(Nc2cc(OC)ccc2OC)n1`, the cell number change came out at 39.8%. Besides, the AC50 under setting [2] is 29.1 µM [rising, single point]. Under setting [1], the AC50 was 23.1 µM [rising, single point].
In the case of `C[C@@H](CSc1ccccc1)CN1CC[C@H](O)CCC1=O`, the cell number change was -19.8%. The AC50 under setting [1] was 6.51 µM [rising, single point].
With `Cc1ccc(OCC(=O)N/N=C\c2ccc(O)c([N+](=O)[O-])c2)c([N+](=O)[O-])c1`, the AC50 under setting [1] is 29.1 µM [rising, single point].
On to `Cc1cccc(C2CC(c3ccc(Cl)cc3)Nc3nc(N)nn32)c1` (stereo unspecified), for which the AC50 under setting [1] is 0.731 µM [rising, partial curve].
Regarding `CCCCCCCCCCCCN1C(=O)CSC1c1cccnc1` (stereo unspecified), the cell number change is -16.7%. For the same molecule, the AC50 under setting [1] is 20.6 µM [falling, single point].
